Test results taken from the supplement of paper PMC7666118.
The list shows a part of the results.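 The calls were made as follows: active = dose-dependent thermal stabilisation significant by F-test of dose-response against flat model at 10% FDR; inactive = not significant.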

The chains behind the UniProt entries cited, without tags or fusion partners. Where a name states a change or a piece, a line headed by the entry shows the natural chain unless it says otherwise.
UniProt P30520: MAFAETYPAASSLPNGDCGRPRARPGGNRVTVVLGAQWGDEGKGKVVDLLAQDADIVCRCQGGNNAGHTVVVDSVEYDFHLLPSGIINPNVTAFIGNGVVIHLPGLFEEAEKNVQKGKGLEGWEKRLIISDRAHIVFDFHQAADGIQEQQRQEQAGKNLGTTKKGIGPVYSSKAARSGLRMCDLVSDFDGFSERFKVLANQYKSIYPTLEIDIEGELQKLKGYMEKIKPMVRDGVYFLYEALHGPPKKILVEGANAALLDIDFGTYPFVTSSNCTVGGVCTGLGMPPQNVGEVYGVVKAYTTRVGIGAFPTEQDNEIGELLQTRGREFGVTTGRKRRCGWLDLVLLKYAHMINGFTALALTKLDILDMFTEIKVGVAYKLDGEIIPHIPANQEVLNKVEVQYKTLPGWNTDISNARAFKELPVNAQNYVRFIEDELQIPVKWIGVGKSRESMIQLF
UniProt Q9NRN7: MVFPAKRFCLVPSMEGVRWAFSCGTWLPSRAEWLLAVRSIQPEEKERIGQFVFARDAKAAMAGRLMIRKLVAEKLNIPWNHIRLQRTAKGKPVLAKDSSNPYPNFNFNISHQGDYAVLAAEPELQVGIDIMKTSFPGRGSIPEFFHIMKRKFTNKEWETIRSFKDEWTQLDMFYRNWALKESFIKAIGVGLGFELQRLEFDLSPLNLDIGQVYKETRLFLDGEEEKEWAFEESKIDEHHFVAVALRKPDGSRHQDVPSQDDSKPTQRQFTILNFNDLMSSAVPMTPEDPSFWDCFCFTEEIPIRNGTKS
UniProt O94973, whole entry: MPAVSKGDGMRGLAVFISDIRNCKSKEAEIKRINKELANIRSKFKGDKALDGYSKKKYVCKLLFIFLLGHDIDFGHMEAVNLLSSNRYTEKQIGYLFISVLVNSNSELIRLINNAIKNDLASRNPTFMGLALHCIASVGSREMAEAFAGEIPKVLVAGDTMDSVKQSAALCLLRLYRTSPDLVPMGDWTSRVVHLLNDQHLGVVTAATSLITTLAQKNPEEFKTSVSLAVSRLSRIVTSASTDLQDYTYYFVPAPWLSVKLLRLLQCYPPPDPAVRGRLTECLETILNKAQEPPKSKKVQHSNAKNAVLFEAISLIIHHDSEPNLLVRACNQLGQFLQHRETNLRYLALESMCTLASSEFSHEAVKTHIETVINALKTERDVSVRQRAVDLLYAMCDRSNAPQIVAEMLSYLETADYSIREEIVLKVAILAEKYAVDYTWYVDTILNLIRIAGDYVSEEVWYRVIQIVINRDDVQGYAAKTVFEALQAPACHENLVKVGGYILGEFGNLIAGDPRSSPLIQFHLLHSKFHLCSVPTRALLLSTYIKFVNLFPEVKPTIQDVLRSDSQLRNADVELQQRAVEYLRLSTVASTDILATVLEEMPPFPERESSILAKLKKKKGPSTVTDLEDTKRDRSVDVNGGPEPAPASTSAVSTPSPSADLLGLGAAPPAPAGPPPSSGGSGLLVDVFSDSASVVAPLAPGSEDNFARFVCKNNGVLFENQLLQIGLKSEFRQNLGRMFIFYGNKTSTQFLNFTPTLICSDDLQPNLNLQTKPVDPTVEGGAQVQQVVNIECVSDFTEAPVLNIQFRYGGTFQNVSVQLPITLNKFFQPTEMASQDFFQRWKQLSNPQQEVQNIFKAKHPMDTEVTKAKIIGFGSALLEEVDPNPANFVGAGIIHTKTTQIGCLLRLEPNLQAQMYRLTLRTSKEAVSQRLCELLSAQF
UniProt P30566: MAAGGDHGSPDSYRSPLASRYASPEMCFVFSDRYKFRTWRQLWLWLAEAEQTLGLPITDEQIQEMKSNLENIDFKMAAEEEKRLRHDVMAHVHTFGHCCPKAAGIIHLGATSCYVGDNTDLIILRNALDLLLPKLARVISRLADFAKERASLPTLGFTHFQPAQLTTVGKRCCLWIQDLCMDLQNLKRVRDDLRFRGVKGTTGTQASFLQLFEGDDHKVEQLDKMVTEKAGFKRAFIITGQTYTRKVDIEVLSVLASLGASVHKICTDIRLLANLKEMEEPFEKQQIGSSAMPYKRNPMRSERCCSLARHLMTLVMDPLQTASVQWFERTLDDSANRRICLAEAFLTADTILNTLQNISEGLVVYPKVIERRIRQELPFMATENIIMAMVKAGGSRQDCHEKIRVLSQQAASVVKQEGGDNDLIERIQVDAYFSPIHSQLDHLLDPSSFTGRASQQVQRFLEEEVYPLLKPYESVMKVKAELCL
UniProt Q9P2A4: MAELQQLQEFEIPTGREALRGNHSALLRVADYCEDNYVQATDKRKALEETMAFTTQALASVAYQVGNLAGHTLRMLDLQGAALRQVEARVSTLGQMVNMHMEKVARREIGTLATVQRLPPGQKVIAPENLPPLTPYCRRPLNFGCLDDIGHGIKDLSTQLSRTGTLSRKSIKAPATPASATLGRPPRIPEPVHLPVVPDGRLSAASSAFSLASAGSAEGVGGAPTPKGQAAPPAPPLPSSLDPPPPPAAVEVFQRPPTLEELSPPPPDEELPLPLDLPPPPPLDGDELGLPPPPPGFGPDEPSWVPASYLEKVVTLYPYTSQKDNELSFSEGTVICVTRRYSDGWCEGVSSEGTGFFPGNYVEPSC
UniProt Q9Y303: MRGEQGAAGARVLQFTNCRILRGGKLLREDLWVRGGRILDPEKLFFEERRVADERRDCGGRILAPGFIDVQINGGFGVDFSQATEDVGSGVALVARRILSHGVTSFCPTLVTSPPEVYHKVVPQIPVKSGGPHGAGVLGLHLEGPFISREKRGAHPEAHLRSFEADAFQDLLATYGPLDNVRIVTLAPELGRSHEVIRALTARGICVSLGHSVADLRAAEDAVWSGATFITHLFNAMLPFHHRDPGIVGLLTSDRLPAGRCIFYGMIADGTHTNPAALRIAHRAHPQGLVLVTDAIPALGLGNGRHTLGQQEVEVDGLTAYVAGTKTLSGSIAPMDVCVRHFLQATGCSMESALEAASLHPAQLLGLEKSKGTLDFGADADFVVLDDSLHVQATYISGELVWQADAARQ
UniProt Q92625: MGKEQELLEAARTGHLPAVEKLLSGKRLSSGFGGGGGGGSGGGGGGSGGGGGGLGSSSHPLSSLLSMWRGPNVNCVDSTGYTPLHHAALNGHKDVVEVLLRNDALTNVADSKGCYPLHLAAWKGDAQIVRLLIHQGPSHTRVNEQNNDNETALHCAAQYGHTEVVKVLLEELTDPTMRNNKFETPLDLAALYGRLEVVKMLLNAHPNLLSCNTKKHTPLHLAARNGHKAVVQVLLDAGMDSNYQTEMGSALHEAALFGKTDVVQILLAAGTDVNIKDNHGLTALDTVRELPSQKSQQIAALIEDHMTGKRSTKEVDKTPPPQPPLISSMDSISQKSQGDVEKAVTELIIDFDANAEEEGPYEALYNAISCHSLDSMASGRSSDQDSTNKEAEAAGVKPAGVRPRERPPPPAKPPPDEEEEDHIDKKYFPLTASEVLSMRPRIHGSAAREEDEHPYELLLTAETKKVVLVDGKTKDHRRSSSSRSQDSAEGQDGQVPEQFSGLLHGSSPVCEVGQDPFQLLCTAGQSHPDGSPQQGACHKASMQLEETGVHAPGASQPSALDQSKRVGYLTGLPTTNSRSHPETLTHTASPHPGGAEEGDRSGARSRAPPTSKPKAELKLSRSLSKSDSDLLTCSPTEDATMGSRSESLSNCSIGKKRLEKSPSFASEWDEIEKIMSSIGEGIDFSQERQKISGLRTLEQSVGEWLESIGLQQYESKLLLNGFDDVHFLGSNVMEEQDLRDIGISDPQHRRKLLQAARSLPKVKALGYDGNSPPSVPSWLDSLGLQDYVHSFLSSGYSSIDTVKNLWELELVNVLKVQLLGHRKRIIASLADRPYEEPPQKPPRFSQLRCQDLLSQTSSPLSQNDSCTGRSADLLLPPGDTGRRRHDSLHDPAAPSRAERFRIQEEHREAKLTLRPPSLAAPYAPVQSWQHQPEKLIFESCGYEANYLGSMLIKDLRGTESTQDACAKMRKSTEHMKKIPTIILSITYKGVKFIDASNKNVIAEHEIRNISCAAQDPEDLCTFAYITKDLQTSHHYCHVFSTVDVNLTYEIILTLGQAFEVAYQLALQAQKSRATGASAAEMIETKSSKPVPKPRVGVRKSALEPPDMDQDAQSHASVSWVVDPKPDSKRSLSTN
UniProt P61966: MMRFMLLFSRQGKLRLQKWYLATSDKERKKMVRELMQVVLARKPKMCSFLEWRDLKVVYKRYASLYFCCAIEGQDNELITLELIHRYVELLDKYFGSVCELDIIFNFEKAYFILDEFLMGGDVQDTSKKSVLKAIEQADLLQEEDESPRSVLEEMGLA
UniProt Q8IZP0: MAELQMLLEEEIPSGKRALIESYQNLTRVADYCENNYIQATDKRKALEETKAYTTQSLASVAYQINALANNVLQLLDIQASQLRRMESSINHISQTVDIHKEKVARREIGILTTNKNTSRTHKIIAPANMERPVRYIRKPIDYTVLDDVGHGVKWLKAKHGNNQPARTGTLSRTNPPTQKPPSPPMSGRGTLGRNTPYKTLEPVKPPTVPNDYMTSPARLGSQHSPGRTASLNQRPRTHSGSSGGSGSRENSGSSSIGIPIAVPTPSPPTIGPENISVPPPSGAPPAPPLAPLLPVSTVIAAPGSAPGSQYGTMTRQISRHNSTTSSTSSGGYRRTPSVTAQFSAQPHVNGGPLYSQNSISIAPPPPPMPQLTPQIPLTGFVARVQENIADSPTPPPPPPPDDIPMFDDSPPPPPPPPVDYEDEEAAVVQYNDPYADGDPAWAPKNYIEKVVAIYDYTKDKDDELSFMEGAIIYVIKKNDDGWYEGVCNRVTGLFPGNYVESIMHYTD
UniProt Q7Z6V5: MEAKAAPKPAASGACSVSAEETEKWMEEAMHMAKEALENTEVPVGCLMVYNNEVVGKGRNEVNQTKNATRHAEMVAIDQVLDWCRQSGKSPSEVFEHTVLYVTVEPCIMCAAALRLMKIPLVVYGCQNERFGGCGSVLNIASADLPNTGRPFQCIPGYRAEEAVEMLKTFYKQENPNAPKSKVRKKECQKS
UniProt P61204: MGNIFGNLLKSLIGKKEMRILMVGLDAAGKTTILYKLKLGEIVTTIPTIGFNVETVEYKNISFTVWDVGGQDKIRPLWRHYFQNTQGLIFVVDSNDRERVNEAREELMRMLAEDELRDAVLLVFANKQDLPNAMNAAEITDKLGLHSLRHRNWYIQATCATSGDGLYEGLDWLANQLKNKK
UniProt P24666: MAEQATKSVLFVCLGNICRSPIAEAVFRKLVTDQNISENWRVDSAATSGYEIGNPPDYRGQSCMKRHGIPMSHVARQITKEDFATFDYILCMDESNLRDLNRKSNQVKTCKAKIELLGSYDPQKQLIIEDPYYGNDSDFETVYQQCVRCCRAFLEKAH
UniProt Q9Y312: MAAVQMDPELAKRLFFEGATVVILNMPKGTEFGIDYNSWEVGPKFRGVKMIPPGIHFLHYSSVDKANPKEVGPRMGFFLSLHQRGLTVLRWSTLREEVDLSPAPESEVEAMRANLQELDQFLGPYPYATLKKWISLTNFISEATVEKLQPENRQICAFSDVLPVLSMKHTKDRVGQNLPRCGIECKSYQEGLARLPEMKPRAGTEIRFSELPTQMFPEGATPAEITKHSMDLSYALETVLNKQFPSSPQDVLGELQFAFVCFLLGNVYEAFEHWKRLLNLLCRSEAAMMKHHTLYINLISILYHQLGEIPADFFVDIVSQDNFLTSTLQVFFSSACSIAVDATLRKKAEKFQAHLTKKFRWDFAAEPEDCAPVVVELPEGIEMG
UniProt Q9BZZ5: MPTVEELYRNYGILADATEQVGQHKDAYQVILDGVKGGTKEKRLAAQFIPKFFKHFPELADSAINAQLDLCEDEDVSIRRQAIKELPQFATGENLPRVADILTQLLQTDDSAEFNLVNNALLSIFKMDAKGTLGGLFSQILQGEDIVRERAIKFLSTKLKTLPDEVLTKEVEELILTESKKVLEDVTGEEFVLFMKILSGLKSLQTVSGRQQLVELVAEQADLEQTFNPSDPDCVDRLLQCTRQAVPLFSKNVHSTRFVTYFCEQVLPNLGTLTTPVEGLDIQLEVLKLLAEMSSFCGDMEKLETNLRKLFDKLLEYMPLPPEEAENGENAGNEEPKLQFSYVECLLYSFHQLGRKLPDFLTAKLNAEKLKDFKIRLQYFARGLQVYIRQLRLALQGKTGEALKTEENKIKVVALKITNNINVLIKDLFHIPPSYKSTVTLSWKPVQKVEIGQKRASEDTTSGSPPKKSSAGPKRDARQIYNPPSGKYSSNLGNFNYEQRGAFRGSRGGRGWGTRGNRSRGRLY
UniProt P04083: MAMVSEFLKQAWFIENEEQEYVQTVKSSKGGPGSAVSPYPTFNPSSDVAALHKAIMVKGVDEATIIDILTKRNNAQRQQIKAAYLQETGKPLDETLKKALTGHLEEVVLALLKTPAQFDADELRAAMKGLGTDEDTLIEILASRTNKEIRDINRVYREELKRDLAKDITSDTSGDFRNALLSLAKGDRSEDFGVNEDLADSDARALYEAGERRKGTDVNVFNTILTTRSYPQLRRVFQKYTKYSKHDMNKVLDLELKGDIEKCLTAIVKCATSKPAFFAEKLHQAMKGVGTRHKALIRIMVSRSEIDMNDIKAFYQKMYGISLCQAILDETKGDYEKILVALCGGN

Compound: Nc1nc2c(ncn2[C@@H]2O[C@H](COP(=O)(O)OP(=O)(O)OP(=O)(O)O)[C@@H](O)[C@H]2O)c(=O)[nH]1
Experiment: dose-dependent thermal stabilisation call (2D-TPP, DLPTP, 10% FDR) (binary (1 = stabilised)); higher = stabilised by the compound
Conditions: system: Jurkat gel-filtered lysate; concentration range 1-500 µM

Row | Target | dose-dependent thermal stabilisation call
1 | ACAP1 (UniProt Q15027) | active: 1
2 | ADSS (UniProt P30520) | inactive: 0
3 | ACY1 (UniProt Q03154) | inactive: 0
4 | ACAD9 (UniProt Q9H845) | inactive: 0
5 | AFF1 (UniProt P51825) | inactive: 0
6 | AASDHPPT (UniProt Q9NRN7) | inactive: 0
7 | AGO2 (UniProt Q9UKV8) | inactive: 0
8 | ANAPC2 (UniProt Q9UJX6) | inactive: 0
9 | ACTR6 (UniProt Q9GZN1) | inactive: 0
10 | ACADS (UniProt P16219) | inactive: 0
11 | AP2A2 (UniProt O94973) | inactive: 0
12 | ADSL (UniProt P30566) | inactive: 0
13 | APOBR (UniProt Q0VD83) | inactive: 0
14 | AMPD2 (UniProt Q01433) | inactive: 0
15 | ABI3 (UniProt Q9P2A4) | inactive: 0
16 | ABCE1 (UniProt P61221) | active: 1
17 | ADA (UniProt P00813) | inactive: 0
18 | ANAPC4 (UniProt Q9UJX5) | inactive: 0

Some of the entries so far, with tabs.
Row	Target	dose-dependent thermal stabilisation call
2	ADSS (UniProt P30520)	inactive: 0
3	ACY1 (UniProt Q03154)	inactive: 0

More records.

Row | Target | dose-dependent thermal stabilisation call
19 | AMDHD2 (UniProt Q9Y303) | inactive: 0
20 | AKAP8 (UniProt O43823) | inactive: 0
21 | ANKS1A (UniProt Q92625) | inactive: 0
22 | AHCYL1 (UniProt O43865) | inactive: 0
23 | AP1S1 (UniProt P61966) | inactive: 0
24 | ABI1 (UniProt Q8IZP0) | inactive: 0
25 | ACTN1 (UniProt P12814) | inactive: 0
26 | ADAT2 (UniProt Q7Z6V5) | inactive: 0
27 | ARF3 (UniProt P61204) | active: 1
28 | APEH (UniProt P13798) | inactive: 0
29 | ACP1 (UniProt P24666) | inactive: 0
30 | AAR2 (UniProt Q9Y312) | inactive: 0
31 | ARF4 (UniProt P18085) | active: 1
32 | ADAM10 (UniProt O14672) | inactive: 0
33 | APC (UniProt P25054) | inactive: 0
34 | API5 (UniProt Q9BZZ5) | inactive: 0
35 | ANKRD28 (UniProt O15084) | inactive: 0
36 | ANXA1 (UniProt P04083) | inactive: 0
